Test results as given in publication PMC12778051.
These are yes or no findings as the source states them, for the method shown. In cells and extracts the contact can be indirect. Some binding calls cover weakened binding; strength is not graded here. Sequences can lack the tags named with a protein.

Biological target: Myc-LUBEL^1-872 (Drosophila melanogaster) (UniProt Q8IPJ3)
Experiment: co-IP; HA-LUBEL^1-872 and Myc-LUBEL^1-872 coexpressed in S2 cells; anti-HA IP, immunoblot

B1: Myc-LUBEL^1-872 (domain or fragment, UniProt Q8IPJ3 1-872)
chain: MTTHQLLNKNVRTMPSWVMEANDRIGPKPPPTPPNGVAGGLPKAPALPPKAKSTPEPDYEIIEFSSQQYSNEPMKTTVIRTKTPDNKLKCTLCGSQNPWVTCAECAGQIFCASCDDMFHKHPKRKQHMRKAVEQGTPPIPPKAQAGGGAPPPVAPPRRSKRGLLTPFLGRKDQMLPPPSPTPSHKSLGGWRGSLGGGATPPVPPIATSSANQMNNRPLPDPPRSEGGGSSRSGTPKSVFDTIQRPPSVQLEKIKSKASATLDRMAILQQRYRQQKARQDLSANSEQHLSNEAGFEHWSNISPSPSHFRSGSMSSGLNSSHFDLSDDSQFHNSLLLQQRQAAGAQRRQMSTSVFNLNSNPRRPLSEAQNGGAWLANQRIQQAQSLAQLNCAGCQQSQQHPGWAQHPHQALPQHQHPDQWSQFGSQQQFNNSNLSLNVGPGYMSQQHHPHYPPPVFMTQRGMMPNVYPGAPGYPMMHPGVMGMPPSAASRAASRSRYAASPTPSRKSMSLRRKRNSYVDDELTDDEDSDQDDRRSLVSNRSGMTSASRSQHHQNHIQPRQRRLSSASQLIASDELDGDQVHHKMRNRRGSIAKSVQSEWLPERRENEGTLTRNKTATDSARTSRIYSDLESEGSGARALVQAKIQQKLQEADQHKSSKKAEPKRKPEMKDENTQAAAVVQKVVVPPAHEESASEYEEVVEEVTASESEAEAQTAPDPQEVPDEIGADDLGPPPSTPDHEWECEFCTFVNEPNIKICSICCKTPSKPPVQPNKAKKVEEKPQPPAEKSNNIKASSKTETKPVQKPTTKSQQPSQKSVAALSKTTHTNSTSSSKASPAVNSKTTSSIPIKTPSKSTLKTSSENESDNSLAKSLLHK
binding: binds
